Taken from: PubChem BioAssay AID1259405 (NCATS, 2018)
Aim: 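Mouse-designed siRNAs used to find CHO productivity engineering targets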 (primary screen). System: Chinese hamster CHO-K1 ovary cells with stable secreted eGFP expression. Knock-down reagent: single siRNA against mouse genes, 0.8 pmol siRNA per well (2 µl of 400 nM stock). Duration: 3 days. Measured: 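Per-well intracellular GFP measured by laser scanning cytometry, plus viability from ATP luminescence, each relative to plate median of non-targeting control wells, in %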. Reading the numbers: GFP, % of control: higher = more GFP per well, higher productivity; viability (ATP), % of control: higher = more viable cells (more ATP). Hit rule: 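Called active when intracellular GFP, relative to negative control, is at or above 120%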.
The deposit covers about 50,000 reagents; this is an unselected part. About 4,000 of all reagents (8%) count as active. 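Mouse siRNA library applied to hamster cells; one well for each siRNA.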 The numbers tell different reagents against one gene apart. No sequences are given here.

Against Tapbpl #1, the values are GFP, % of control 94.7; viability (ATP), % of control 59.2; inactive. Tapbpl #2 showed GFP, % of control 75.8; viability (ATP), % of control 92.1; inactive. Silencing of Tapbpl #3 gave: GFP, % of control 41.4; viability (ATP), % of control 61.5; inactive. Against Tspan1 #1, the values are GFP, % of control 30; viability (ATP), % of control 39.9; inactive. Knock-down of Tspan1 #2 gave: GFP, % of control 5.55; viability (ATP), % of control 9.97; inactive. Tspan1 #3 showed GFP, % of control 74.8; viability (ATP), % of control 74.6; inactive.

Knock-down of Tmprss5 #1 came out at: GFP, % of control 81.6; viability (ATP), % of control 56.1; inactive. Tmprss5 #2 gave GFP, % of control 62.5; viability (ATP), % of control 46.7; inactive. Tmprss5 #3 gave GFP, % of control 72.7; viability (ATP), % of control 76.9; inactive. With knock-down of Acsl3 #1, the record shows GFP, % of control 83.1; viability (ATP), % of control 72.8; inactive. Silencing of Acsl3 #2 gave: GFP, % of control 45.5; viability (ATP), % of control 52.6; inactive. Acsl3 #3 showed GFP, % of control 113; viability (ATP), % of control 161; inactive.

Silencing of Speer1h #1 gave: GFP, % of control 56.7; viability (ATP), % of control 51.7; inactive. After knock-down of Speer1h #2, the record shows GFP, % of control 61.7; viability (ATP), % of control 60; inactive. Silencing of Speer1h #3 gave: GFP, % of control 99.2; viability (ATP), % of control 55.8; inactive. Klf11 #1 showed GFP, % of control 72.2; viability (ATP), % of control 89.9; inactive. Knock-down of Klf11 #2 resulted in: GFP, % of control 61.5; viability (ATP), % of control 65.5; inactive. Knock-down of Klf11 #3 came out at: GFP, % of control 56; viability (ATP), % of control 108; inactive.

An excerpt from above, showing only “GFP, % of control”.
Acsl3 #3 = 113
Speer1h #1 = 56.7

More results follow:
With knock-down of Or5g29 #1 the results were GFP, % of control 114; viability (ATP), % of control 84; inactive. Against Or5g29 #2 the deposit lists GFP, % of control 50.3; viability (ATP), % of control 72.5; inactive. Against Or5g29 #3, the values are GFP, % of control 69.5; viability (ATP), % of control 61.2; inactive. After knock-down of Nphp3 #1, the screen gave GFP, % of control 93.2; viability (ATP), % of control 108; inactive. After knock-down of Nphp3 #2 the results were GFP, % of control 52.4; viability (ATP), % of control 69.8; inactive. Knock-down of Ambra1 #1 resulted in: GFP, % of control 88.2; viability (ATP), % of control 93.1; inactive.

Ambra1 #2 scored GFP, % of control 80; viability (ATP), % of control 42.8; inactive. Against Ambra1 #3, the values are GFP, % of control 65.7; viability (ATP), % of control 94.3; inactive. For Trpm3 #1, the entry reads GFP, % of control 105; viability (ATP), % of control 81.5; inactive. Trpm3 #2 gave GFP, % of control 93.1; viability (ATP), % of control 97.6; inactive. Knock-down of Trpm3 #3 resulted in: GFP, % of control 29.6; viability (ATP), % of control 35; inactive. For Prr11 #1, the entry reads GFP, % of control 48.5; viability (ATP), % of control 50.1; inactive.

Knock-down of Prr11 #2 resulted in: GFP, % of control 55.7; viability (ATP), % of control 78.7; inactive. Prr11 #3 scored GFP, % of control 65.6; viability (ATP), % of control 81.4; inactive. With knock-down of Akt1s1 #1, the screen gave GFP, % of control 84.2; viability (ATP), % of control 65.2; inactive. Against Akt1s1 #2, the values are GFP, % of control 68.1; viability (ATP), % of control 77.3; inactive. Against Akt1s1 #3, the values are GFP, % of control 80.6; viability (ATP), % of control 75.4; inactive. For Cenpq #1, the entry reads GFP, % of control 76.9; viability (ATP), % of control 46.8; inactive.

Cenpq #2 gave GFP, % of control 74.7; viability (ATP), % of control 42.3; inactive. Silencing of Cenpq #3 gave: GFP, % of control 51; viability (ATP), % of control 84; inactive. Against Gtf2a1 #1 the deposit lists GFP, % of control 84.7; viability (ATP), % of control 78.7; inactive. Against Gtf2a1 #2, the values are GFP, % of control 138; viability (ATP), % of control 83.4; active.
